Results as given in publication doi:10.1101/2024.12.05.626371.
No constants are given. Whether binding was seen depends on the method and setting. In cells and extracts the contact can be indirect. Some results given as binding are weak or reduced against the parent protein; the word gives no strength.

Sequences of proteins named here, by UniProt entry; tags and fusion partners are left off. Residues count along the entry.
UniProt Q14766, residues 24-1721: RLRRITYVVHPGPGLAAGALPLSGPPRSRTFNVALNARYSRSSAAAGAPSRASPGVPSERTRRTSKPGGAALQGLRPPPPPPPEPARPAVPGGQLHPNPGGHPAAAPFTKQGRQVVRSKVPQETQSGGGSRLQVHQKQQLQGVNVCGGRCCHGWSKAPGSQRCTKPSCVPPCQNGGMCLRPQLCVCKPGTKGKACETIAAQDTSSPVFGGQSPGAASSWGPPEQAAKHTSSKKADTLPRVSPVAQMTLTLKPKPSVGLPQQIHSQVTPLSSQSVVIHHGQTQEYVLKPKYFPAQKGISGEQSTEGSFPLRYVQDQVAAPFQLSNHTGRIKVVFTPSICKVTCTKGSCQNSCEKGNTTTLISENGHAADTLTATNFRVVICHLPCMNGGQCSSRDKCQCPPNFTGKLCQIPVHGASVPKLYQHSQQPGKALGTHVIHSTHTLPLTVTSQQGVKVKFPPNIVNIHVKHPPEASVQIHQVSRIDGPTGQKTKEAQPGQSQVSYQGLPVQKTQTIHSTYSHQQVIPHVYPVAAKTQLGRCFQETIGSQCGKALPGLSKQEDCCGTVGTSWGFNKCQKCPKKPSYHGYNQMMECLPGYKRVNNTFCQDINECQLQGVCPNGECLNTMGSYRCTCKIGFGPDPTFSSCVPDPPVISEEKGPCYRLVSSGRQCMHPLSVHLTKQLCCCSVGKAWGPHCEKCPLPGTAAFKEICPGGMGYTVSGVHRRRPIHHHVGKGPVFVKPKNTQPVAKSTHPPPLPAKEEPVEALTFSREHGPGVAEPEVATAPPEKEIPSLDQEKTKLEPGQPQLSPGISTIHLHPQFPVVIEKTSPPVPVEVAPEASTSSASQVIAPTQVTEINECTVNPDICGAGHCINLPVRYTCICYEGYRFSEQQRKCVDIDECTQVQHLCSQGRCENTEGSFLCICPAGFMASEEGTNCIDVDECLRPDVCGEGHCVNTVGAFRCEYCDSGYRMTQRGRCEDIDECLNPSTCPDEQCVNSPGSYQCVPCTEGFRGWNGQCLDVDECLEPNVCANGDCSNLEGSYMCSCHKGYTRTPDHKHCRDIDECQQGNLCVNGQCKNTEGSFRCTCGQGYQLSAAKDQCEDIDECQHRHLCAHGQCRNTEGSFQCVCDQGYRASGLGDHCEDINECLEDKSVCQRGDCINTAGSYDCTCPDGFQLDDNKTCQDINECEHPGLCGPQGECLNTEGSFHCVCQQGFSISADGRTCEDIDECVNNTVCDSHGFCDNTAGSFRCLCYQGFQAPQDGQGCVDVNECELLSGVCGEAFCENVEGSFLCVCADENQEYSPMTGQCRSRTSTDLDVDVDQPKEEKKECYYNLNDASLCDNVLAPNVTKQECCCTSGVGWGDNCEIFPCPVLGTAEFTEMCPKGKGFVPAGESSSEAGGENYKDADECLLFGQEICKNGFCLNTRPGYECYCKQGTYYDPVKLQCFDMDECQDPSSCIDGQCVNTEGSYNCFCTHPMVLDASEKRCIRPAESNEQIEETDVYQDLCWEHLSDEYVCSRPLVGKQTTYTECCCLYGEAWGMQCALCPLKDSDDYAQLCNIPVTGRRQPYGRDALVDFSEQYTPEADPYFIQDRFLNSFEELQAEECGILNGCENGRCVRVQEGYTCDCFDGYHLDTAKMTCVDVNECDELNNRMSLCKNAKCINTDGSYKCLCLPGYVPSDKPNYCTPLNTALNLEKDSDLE

Tests used:
[1] = target: T1, Fibulin-1 (human (endogenous in lung tissue)) (UniProt P23142); assay: proximity ligation
T1 sequence: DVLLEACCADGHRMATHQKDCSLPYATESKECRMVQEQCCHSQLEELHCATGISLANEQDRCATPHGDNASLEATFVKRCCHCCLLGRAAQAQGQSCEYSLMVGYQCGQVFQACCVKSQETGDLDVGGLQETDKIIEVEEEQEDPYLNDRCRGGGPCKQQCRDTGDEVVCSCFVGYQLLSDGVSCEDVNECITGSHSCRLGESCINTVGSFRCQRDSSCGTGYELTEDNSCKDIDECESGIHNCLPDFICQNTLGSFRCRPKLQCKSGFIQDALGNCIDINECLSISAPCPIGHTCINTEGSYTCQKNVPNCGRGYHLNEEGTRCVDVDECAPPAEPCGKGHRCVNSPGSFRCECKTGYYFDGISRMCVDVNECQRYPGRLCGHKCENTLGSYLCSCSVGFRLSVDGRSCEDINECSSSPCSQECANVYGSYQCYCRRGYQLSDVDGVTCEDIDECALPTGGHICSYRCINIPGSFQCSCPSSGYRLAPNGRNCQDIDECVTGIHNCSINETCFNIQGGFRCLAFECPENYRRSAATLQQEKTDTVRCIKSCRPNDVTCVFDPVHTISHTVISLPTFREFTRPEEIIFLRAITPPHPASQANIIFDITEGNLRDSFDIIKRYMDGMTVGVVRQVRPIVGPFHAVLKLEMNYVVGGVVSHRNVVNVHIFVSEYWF

[2] = target: Latent TGFβ binding protein 1 (human (endogenous in lung tissue)) (UniProt Q14766); assay: proximity ligation

Latent TGFβ binding protein 1 (from UniProt Q14766 24-1721)
binding [1]: binds

B1: Osteoprotegerin (protein, UniProt O00300 22-401)
chain: ETFPPKYLHYDEETSHQLLCDKCPPGTYLKQHCTAKWKTVCAPCPDHYYTDSWHTSDECLYCSPVCKELQYVKQECNRTHNRVCECKEGRYLEIEFCLKHRSCPPGFGVVQAGTPERNTVCKRCPDGFFSNETSSKAPCRKHTNCSVFGLLLTQKGNATHDNICSGNSESTQKCGIDVTLCEEAFFRFAVPTKFTPNWLSVLVDNLPGTKVNAESVERIKRQHSSQEQTFQLLKLWKHQNKDQDIVKKIIQDIDLCENSVQRHIGHANLTFEQLRSLMESLPGKKVGAEDIEKTIKACKPSDQILKLLSLWRIKNGDQDTLKGLMHALKHSKTYHFPKTVTQSLKKTIRFLHSFTMYKLYQKLFLEMIGNQVQSVKISCL
binding [2]: no binding | binding [1]: binds
